# Test results from PubChem BioAssay AID662 (National Center for Advancing Translational Sciences (NCATS), 2007).
# This is one part of the list. Shown are side measurements of this screen, not its main read-out; they come without a call. Most of these compounds were active or inconclusive in the main read-out, so they are no random draw. The note in brackets gives the kind of curve behind each potency; many fits are weak. Peptide text beside a SMILES is read from it. * marks the point of attachment. Cbz = O=C(OCc1ccccc1)*
# Test: Cell signaling CRE-BLA (Fsk stim)
# Conditions: CHO CRE-bla reporter (cAMP response element driving beta-lactamase), forskolin EC10, beta-lactamase ratio; measured here: 460 nm blue channel
# In short: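 Cells were plated overnight at 37 °C, exposed to compound titrations plus EC10 NKH 477 for 3 h, then given CCF4 dye for 2 h at room temperature. Blue/green (460/530 nm) ratio was converted to %Activity and AC50 values calculated.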
row,SMILES,AC50
1,COCC(=O)N(Cc1cc2cc(OC)ccc2[nH]c1=O)c1ccc(C)cc1,"5.01 µM [falling, single point]"
2,CCN1CCC[C@H]1CNC(=O)c1c(O)c(Cl)cc(Cl)c1OC,"25.1 µM [falling, single point]"
3,COc1ccc(S(=O)(=O)N2CCC(C(=O)Nc3nnc(CCN4CCCCC4)s3)CC2)cc1,"0.00794 µM [falling, full curve, poor fit]"
4,Cc1cc(C)n(-c2ccc(C(=O)OCC(=O)c3c(N)n(C)c(=O)n(C)c3=O)cc2)n1,"3.16 µM [rising, full curve]"
5,O=C(Oc1ccc2ccccc2c1)c1ccco1,"1.58 µM [falling, partial curve, poor fit]"
6,c1cn(-c2cc(-c3ccc4c(c3)OCO4)ncn2)cn1,"5.01 µM [rising, full curve]"
7,CCN1C(=O)c2cccc3c(NC(=O)c4ccc5c(c4)OCCO5)ccc1c23,"3.98 µM [rising, full curve]"
8,Cc1cc(-n2nc(C)cc2C)n2ncc(-c3ccccc3)c2n1,"1.58 µM [falling, full curve]"
9,CCOC(=O)c1c(C)nc(-c2ccccc2)nc1N,"12.6 µM [rising, partial curve]"
10,C=CCOc1cccc(C2C(C(=O)c3ccco3)=C(O)C(=O)N2CCN(CC)CC)c1 (configuration not stated),"3.98 µM [falling, partial curve]"
11,CN(Cc1ccccc1)Cc1nc2c([nH]1)c(=O)[nH]c(=O)n2C,"0.158 µM [falling, partial curve, poor fit]"
12,CC(C)(C)OC(=O)N[C@@H](Cc1ccccc1)c1nnc(S(=O)(=O)Cc2ccccc2)o1,"6.31 µM [falling, partial curve]"
13,COc1ccc(-c2nc(C#N)c(N3CCCCCC3)o2)cc1,"5.01 µM [rising, partial curve]"
14,CCN1CCN(CCCNc2ncnc3nc[nH]c23)CC1,"2.51 µM [rising, full curve]"
15,COc1cc2sc(C)nc2c2sccc12,"1 µM [rising, partial curve]"
16,O=C(NCCc1csc(-c2ccccc2)n1)c1cccs1,"3.98 µM [falling, partial curve]"
17,CN(C)Cc1cn(CCC(=O)O)c2ccccc12,"5.01 µM [falling, partial curve]"
18,CN1CCN(c2ncc3nc(-c4ccccc4)c(=O)n(C4CC4)c3n2)CC1,"10 µM [rising, partial curve]"
19,COc1cccc(-c2cc(C(=O)N3CCCCC3C)no2)c1 (configuration not stated),"1 µM [rising, full curve, poor fit]"
20,CCOc1ccc(C2=Nn3c(nnc3-c3ccc(OC)cc3)SC2)cc1,"10 µM [rising, partial curve]"
21,CC(C)CCn1c(SCc2ccc(Cl)cc2)nc2c1c(=O)[nH]c(=O)n2C,"1.26 µM [rising, full curve]"
22,CC(C)C(NC(=O)OCc1ccccc1)C(=O)OCC(=O)N1C(C)CCCC1C (configuration not stated),"5.01 µM [falling, single point]"
23,COC(=O)c1ccccc1NC(=O)C(C)Oc1ccccc1 (configuration not stated),"2.51 µM [rising, full curve]"

row,SMILES,AC50
1,N#Cc1ccc(NC(=O)c2cc3cc4c5c(c3oc2=N)CCCN5CCC4)cc1,"10 µM [rising, partial curve]"
2,Cc1cc(C(=O)OCC(=O)NCc2ccco2)c(C)n1-c1ccccc1,"25.1 µM [rising, single point]"
3,COC(=O)CCC(NC(=O)OCc1ccccc1)C(=O)NC(CC(C)C)C(=O)OC (configuration not stated) (Cbz-Glu(OMe)-Leu-OMe; configuration not given here),"0.00794 µM [falling, full curve, poor fit]"
4,CN(C)c1ccc(-c2nccc(NCc3ccccc3)n2)cc1,"3.16 µM [rising, single point]"
5,CCCCCOC(=O)c1ccc(NC(=O)c2ccco2)cc1,"12.6 µM [rising, partial curve]"
6,Cc1cnnc2c1-c1no[n+]([O-])c1CC2,"0.00631 µM [falling, full curve, poor fit]"
7,C=CCn1c(SCC(=O)NCc2ccco2)nc2sc3c(c2c1=O)CCC3,"12.6 µM [rising, single point]"
8,COc1cccc(Cn2c(C3CC3)nc3ccc(NC(=O)c4ccco4)cc3c2=O)c1,"0.398 µM [rising, partial curve]"
9,Cc1ccc(S(=O)(=O)N2CCN(C)CC2)cc1-c1nnc2c3ccccc3c(C)nn12,"10 µM [rising, partial curve]"
10,COc1cc2c(cc1OC)-c1cc(OCc3cccnc3)nc(=O)n1CC2,"7.94 µM [rising, partial curve]"
11,Cc1ccc(-c2nc3ncccn3c2Nc2ccc3c(c2)OCCO3)o1,"3.98 µM [falling, partial curve]"
12,CCOC(=O)c1ccc2[nH]c3c(c2c1)CCCCC3=O,"6.31 µM [rising, partial curve]"
13,COc1ccccc1-n1c(SCC(=O)Nc2nnc(C)s2)nc2c(c1=O)SCC2,"12.6 µM [rising, single point]"
14,O=C(c1ccc(Cl)cc1)N1CCN(c2nc(N3CCCCC3)nc(N3CCCCC3)n2)CC1,"0.316 µM [rising, full curve]"
15,COc1ccc(N2C(=O)CCC(C(=O)c3ccccc3)=C2C)cc1,"1 µM [falling, partial curve, poor fit]"
16,CCc1ccc2[nH]c(=O)c(CN(Cc3ccccc3)Cc3nnnn3Cc3ccco3)cc2c1,"25.1 µM [falling, single point]"
17,COCCNC(=O)Cn1cnc2c1c(=O)n(C)c(=O)n2C,"0.251 µM [falling, full curve]"
18,O=C(O)CSC1CC(=O)N(c2ccc(Cl)c(Cl)c2)C1=O (configuration not stated),"20 µM [falling, single point]"
19,Nc1c2c(nc3ccn(-c4ccccc4)c(=O)c13)CCCCC2,"15.8 µM [rising, single point]"
20,COC(=O)[C@@]1(Cc2ccc(F)cc2)[C@H]2c3cc(C(=O)N4CCCC4)n(Cc4cc(F)cc5c4OCOC5)c3C[C@H]2CN1C(=O)c1ccccc1,"0.398 µM [rising, full curve, poor fit]"
21,CCCCc1nc2ccccc2n2cc3c(=O)n(C)c(=O)n(C)c3c12,"1.58 µM [rising, full curve]"
22,COc1ccc(C2CC(C(F)(F)F)n3ncc(C(=O)NCc4cccnc4)c3N2)cc1OC (configuration not stated),"10 µM [rising, partial curve]"
23,O=C(Cn1nc(-c2ccccc2)c2ccccc2c1=O)Nc1ccc2c(c1)nc1n2CCOC1,"10 µM [rising, single point]"

row,SMILES,AC50
1,Cc1cc(C(F)(F)F)n2ncc(-c3ccccc3)c2n1,"10 µM [rising, single point]"
2,CCOC(=O)N1CCN(c2ccc(C(=O)c3ccccc3)cc2F)CC1,"0.398 µM [rising, full curve]"
3,O=C(CN1CCN(c2nc(-c3ccccc3)cs2)CC1)NCc1ccc2c(c1)OCO2,"25.1 µM [falling, single point]"
4,Cc1ccc(S(=O)(=O)N2CCN(C(=O)COC(=O)COc3ccccc3)CC2)cc1,"10 µM [rising, partial curve]"
5,Cc1nc(NCc2ccco2)c2oc3ccccc3c2n1,"6.31 µM [rising, partial curve]"
6,Cn1c(=O)[nH]c(=O)c2c1nc(Sc1ncccn1)n2CCCc1ccccc1,"25.1 µM [falling, single point]"
7,Fc1ccccc1N1CCN(C2CCN(Cc3c[nH]c4ccccc34)CC2)CC1,"2.51 µM [falling, partial curve, poor fit]"
8,CN1C=CC=C/C1=C1\SC(=S)N(C2CCCCC2)C1=O,"0.794 µM [falling, full curve, poor fit]"
9,N#Cc1ccccc1-c1nc(NCCN2CCOCC2)c2ccccc2n1,"10 µM [rising, partial curve]"
10,CC1(C)NC(C)(C)C(O)(C(N)=O)C1=O (configuration not stated),"0.158 µM [falling, full curve]"
11,CCN1C(=O)c2cccc3cccc1c23,"10 µM [rising, partial curve]"
12,Cc1cc2cc(CCNC(=O)c3ccc(Br)o3)c(=O)[nH]c2cc1C,"3.16 µM [rising, full curve]"
13,CCN1CCN(c2nc3ccccc3nc2C(C#N)C(=O)OCc2ccccc2)CC1 (configuration not stated),"12.6 µM [rising, single point]"
14,COc1cc2c(C#N)c(N3CCc4ccccc4C3)nc(N)c2c(N)n1,"1 µM [rising, full curve]"
15,CCn1c(CC(=O)Nc2cccc(OC)c2)nnc1SCC(=O)Nc1nccs1,"0.00316 µM [falling, full curve, poor fit]"
16,CCOc1ccc(Cc2nc(-c3nonc3N)no2)cc1OCC,"15.8 µM [rising, partial curve]"
17,CCOC(=O)CSc1nnc(NCC(=O)OC(C)C)c(=O)[nH]1,"12.6 µM [falling, partial curve]"
18,CCOC(=O)c1cnc(-c2cccc(OC)c2)[nH]c1=O,"0.631 µM [falling, full curve]"
19,CCOc1cc2[nH]c(=O)n(CCc3ccc(OC)c(OC)c3)c(=O)c2cc1OCC,"0.126 µM [falling, full curve, poor fit]"
20,Cc1ccc(-n2ncc3c(=O)n(CC(=O)N4CCCCCC4)cnc32)cc1,"25.1 µM [rising, partial curve]"
21,CCOC(=O)C1=C(C)OC(N)=C(C#N)C1c1c(C)nn(-c2ccccc2)c1Cl (configuration not stated),"0.126 µM [falling, single point]"

# Part of the list above in order of number of heavy atoms, falling:
row,SMILES,AC50
3,O=C(CN1CCN(c2nc(-c3ccccc3)cs2)CC1)NCc1ccc2c(c1)OCO2,"25.1 µM [falling, single point]"
19,CCOc1cc2[nH]c(=O)n(CCc3ccc(OC)c(OC)c3)c(=O)c2cc1OCC,"0.126 µM [falling, full curve, poor fit]"
7,Fc1ccccc1N1CCN(C2CCN(Cc3c[nH]c4ccccc34)CC2)CC1,"2.51 µM [falling, partial curve, poor fit]"
6,Cn1c(=O)[nH]c(=O)c2c1nc(Sc1ncccn1)n2CCCc1ccccc1,"25.1 µM [falling, single point]"
20,Cc1ccc(-n2ncc3c(=O)n(CC(=O)N4CCCCCC4)cnc32)cc1,"25.1 µM [rising, partial curve]"
14,COc1cc2c(C#N)c(N3CCc4ccccc4C3)nc(N)c2c(N)n1,"1 µM [rising, full curve]"
16,CCOc1ccc(Cc2nc(-c3nonc3N)no2)cc1OCC,"15.8 µM [rising, partial curve]"
17,CCOC(=O)CSc1nnc(NCC(=O)OC(C)C)c(=O)[nH]1,"12.6 µM [falling, partial curve]"
5,Cc1nc(NCc2ccco2)c2oc3ccccc3c2n1,"6.31 µM [rising, partial curve]"
1,Cc1cc(C(F)(F)F)n2ncc(-c3ccccc3)c2n1,"10 µM [rising, single point]"
11,CCN1C(=O)c2cccc3cccc1c23,"10 µM [rising, partial curve]"
10,CC1(C)NC(C)(C)C(O)(C(N)=O)C1=O (configuration not stated),"0.158 µM [falling, full curve]"
